Test system: SAGA P dimers
Assay: Native MS glycan clustering ratio on SAGA P dimers
Assay type: binding, human norovirus (hNoV)
Conditions: on SAGA P dimer

Compound	Glycan-Clustering Ratio R (100 µM glycan)	Glycan-Clustering Ratio R (200 µM glycan)	Glycan-Clustering Ratio R (300 µM glycan)	Glycan-Clustering Ratio R (400 µM glycan)	Glycan-Clustering Ratio R (500 µM glycan)
CC(=O)N[C@H]1[C@H](O[C@H]2[C@@H](O)[C@@H](CO)O[C@H](O[C@@H]3[C@H](O)[C@@H](O)[C@H](O[C@H]4[C@H](O)[C@@H](O)C(O)O[C@@H]4CO)O[C@@H]3CO)[C@@H]2O)O[C@H](CO)[C@H](O)[C@@H]1O (stereo partly drawn) [Gb4, GalNAc β1-3 Galα1-4Galβ1-4Glc]	0.35±0.06	0.60± 0.09	1.05±0.09	1.21± 0.15	1.40 ± 0.21
CC(=O)N[C@H]1[C@@H](O[C@H]2[C@@H](O)[C@@H](CO)O[C@@H](O[C@H]3[C@H](O)[C@@H](CO)OC(O)[C@@H]3NC(C)=O)[C@@H]2O[C@@H]2O[C@@H](C)[C@@H](O)[C@@H](O)[C@@H]2O)O[C@H](CO)[C@H](O)[C@@H]1O (stereo partly drawn) [HBGA A, GalNAcα1-3(Fucα-2)Galβ1-3GlcNAc]	0.37± 0.13	0.66± 0.10	0.98± 0.08	1.34± 0.26	1.44 ± 0.15
CC(=O)N[C@H]1C(O)O[C@H](CO)[C@@H](O)[C@@H]1O[C@@H]1O[C@H](CO)[C@H](O)[C@H](O[C@H]2O[C@H](CO)[C@H](O)[C@H](O)[C@H]2O)[C@H]1O[C@@H]1O[C@@H](C)[C@@H](O)[C@@H](O)[C@@H]1O (stereo partly drawn) [HBGA B, Galα1-3(Fucα1-2)Galβ1-3GlcNAc]	0.44± 0.07	0.62± 0.05	1.01± 0.02	1.31± 0.20	1.55 ± 0.05

— paper PMC8231113, “Protein Secondary Structure Affects Glycan Clustering in Native Mass Spectrometry” (Life, 2021)
